Test results: PubChem BioAssay AID540256 (National Center for Advancing Translational Sciences (NCATS), 2011)
Screen size: about 300,000 compounds; about 3,700 (1.2%) were called active. This list was built around the results that the source calls inconclusive (neither active nor inactive); the mix of calls is not that of the screen. Calls follow the shape of the full dose curve; tested in HEK293 cells. Potencies of inconclusive entries are doubtful fits and often do not repeat.
Potency is read from the fitted curve at half-maximal effect.

Test: qHTS for Inhibitors of binding or entry into cells for Lassa Virus; also: nearly all actives have a fitted effect of over 50% in size
Details: Lassa virus pseudotype entry inhibition, cell reporter; series mostly up to 37.9 µM
With `Nc1nn(-c2ccccc2)c(N)c1N=Nc1ccc2c(c1)OCO2` the Potency was inconclusive: 6.31 µM [inhibitor, single point].
For `COc1ccc(N=C(C)C2=C(O)CSC2=O)cc1`, the Potency was “inactive”.
With `CC(=O)Nc1cccc(/C(C)=N/NC(=O)c2ccc(NS(=O)(=O)c3cccs3)cc2)c1` the Potency was “inactive”.
In the case of `Cc1ccc(NC(=O)COc2ccccc2)cc1S(=O)(=O)N1CCCCCC1`, the Potency is reported as inconclusive: 22.4 µM [inhibitor, single point].
In the case of `Cc1nn2c(C)c(C(=O)NCc3ccc(OC(C)C)cc3)cnc2c1-c1ccc(F)cc1`, the Potency is reported as “inactive”.
With `CCOC(=O)c1[nH]c(Cc2[nH]c(C(=O)OCC)c(C)c2CCC(=O)OC)c(CCC(=O)OC)c1C` the Potency was inconclusive: 7.3 µM [inhibitor, partial curve, poor fit].
With `COc1ccc(/C=N/n2nnnc2N)c(OC)c1` the Potency was “inactive”.
In the case of `Cc1ccc2nc(-c3ccc(Cl)s3)c(Nc3ccc4c(c3)OCCO4)n2c1`, the Potency is reported as inconclusive: 8.91 µM [activator, partial curve, poor fit].
With `COc1cccc(-n2c(SCc3ccc(F)cc3)nc3c([nH]c4ccccc43)c2=O)c1` the Potency was inconclusive: 35.5 µM [inhibitor, partial curve, poor fit].
With `Cc1cccc(C(=O)Nc2ccc(NC(=O)Cc3ccc(Cl)cc3)cc2)c1` the Potency was “inactive”.
With `CCCN1C(=O)/C(=C/c2ccc(C)o2)SC1=Nc1ccc(OC)cc1` the Potency was inconclusive: 11.2 µM [inhibitor, partial curve, poor fit].
With `CCOc1ccc(NC(=O)c2cc(C)nc3c2c(C)nn3-c2ccc(C)cc2)cc1` the Potency was inconclusive: 11.2 µM [activator, partial curve, poor fit].
For `O=C(Nc1cccc(Cl)c1)c1c(O)c2c(n(Cc3ccco3)c1=O)CCCC2`, the Potency was inconclusive: 11.6 µM [activator, partial curve].
With `O=C(NCCN1CCOCC1)NC1(C(F)(F)F)Oc2ccc(Cl)cc2O1` (stereo not drawn) the Potency was inconclusive: 15.8 µM [inhibitor, single point].
For `O=C(OCC(=O)N1CCc2ccccc21)c1ccc[nH]c1=O`, the Potency was “inactive”.
In the case of `CC1CCCN(c2nc3c(c(=O)n(C)c(=O)n3C)n2Cc2ccccc2)C1` (stereo not drawn), the Potency is reported as inconclusive: 29.1 µM [inhibitor, single point].
For `CNC(=O)/C(C#N)=c1\s/c(=C/C(=O)OC)c(=O)n1-c1ccccc1`, the Potency was “inactive”.
With `CCN(CC)c1ccc(/C=N/NC(=O)c2cccc(S(=O)(=O)N3CCOCC3)c2)c(O)c1` the Potency was inconclusive: 2.51 µM [inhibitor, full curve].
In the case of `Clc1ncnc2c1oc1ccccc12`, the Potency is reported as inconclusive: 29.1 µM [inhibitor, single point].
For `CCOC(=O)COc1cnc2ccccc2n1`, the Potency was “inactive”.
For `COc1ccc(C2C(C(=O)Nc3cccc(OC)c3)c3ccccc3C(=O)N2C)cc1` (stereo not drawn), the Potency was “inactive”.
In the case of `COC(=O)c1ccc(C(=O)N2CCCC(CNC(=O)c3ccccc3Cl)C2)cc1` (stereo not drawn), the Potency is reported as “inactive”.
With `CCOC(=O)C1=CN(Cc2ccc(OC)cc2)C=C(C(=O)OCC)C1c1cccs1` the Potency was inconclusive: 3.55 µM [inhibitor, single point].
With `Cc1ccc(/C=N/N2CCN(c3ccc(Cl)cc3)CC2)o1` the Potency was “inactive”.
For `CC(=O)N(C(C)=O)c1ncc2c([nH]c3ccccc32)c1C#N`, the Potency was “inactive”.
In the case of `CCOc1ccc(C(=O)N/N=C/c2ccc(SC)cc2)cc1`, the Potency is reported as active: 2.82 µM.
With `CCc1ccc(NC(=S)N2CCN(S(=O)(=O)c3ccccc3)CC2)cc1` the Potency was inconclusive: 31.6 µM [inhibitor, single point].
In the case of `CCOc1ccc(S(=O)(=O)N(CC(=O)NCc2cccnc2)c2ccc(C)cc2)cc1`, the Potency is reported as inconclusive: 0.355 µM [inhibitor, full curve, poor fit].
With `COc1cccc(C(=O)Oc2c(Sc3ccc(C)cc3)c(C)nn2C(C)(C)C)c1OC` the Potency was inconclusive: 10 µM [inhibitor, partial curve].
For `COc1ccc(N2C(=O)NC(=O)/C(=C/c3cccc(OC(=O)c4cccs4)c3)C2=O)cc1Cl`, the Potency was “inactive”.
In the case of `Cc1cc(C(=O)OCC(=O)NCc2ccccc2)c2ccccc2n1`, the Potency is reported as “inactive”.
For `Clc1ccc2c(c1)-c1nnc(Br)n1-c1ccccc1S2`, the Potency was inconclusive: 10 µM [inhibitor, partial curve].
In the case of `O=C1N=C2SCCN2/C1=C\c1ccc(Cl)cc1`, the Potency is reported as inconclusive: 35.5 µM [inhibitor, single point].
For `CCN(CC(=O)Nc1ccc(NC(C)=O)cc1)C(=O)c1oc2ccccc2c1C`, the Potency was “inactive”.
For `COc1ccccc1N1CCN(C(CNC(=O)C(=O)NCc2cccnc2)c2cccnc2)CC1` (stereo not drawn), the Potency was inconclusive: 14.1 µM [inhibitor, single point].
With `CC(=O)N/N=C(\C)c1ccc2c(c1)OCCO2` the Potency was “inactive”.
With `COc1ccccc1C(=O)Nc1ccc(OCc2nnc3c4ccccc4c(C)nn23)cc1` the Potency was inconclusive: 25.9 µM [inhibitor, single point].
In the case of `O=C(OCc1nc2ccccc2s1)c1ccco1`, the Potency is reported as inconclusive: 2.82 µM [activator, partial curve, poor fit].
With `Fc1ccccc1OCCCCCCN1CCCC1` the Potency was “inactive”.
In the case of `COCCNC(=S)N1CCN(C(c2ccccc2)c2ccccc2)CC1`, the Potency is reported as “inactive”.
In the case of `COc1ccc(CN(C)C(C)C(=O)Nc2ccc(S(=O)(=O)N3CCCCC3)cc2)c(OC)c1` (stereo not drawn), the Potency is reported as inconclusive: 20 µM [inhibitor, partial curve, poor fit].
For `O=S(=O)(c1ccccc1)c1nc(NCc2ccccc2)sc1Cl`, the Potency was “inactive”.
For `CCOc1cccc(CC(=O)N2CCc3c([nH]c4ccc(OC)cc34)C2c2ccc(F)cc2)c1OCC` (stereo not drawn), the Potency was inconclusive: 3.55 µM [inhibitor, single point].
For `CCOc1ccccc1NC(=O)COC(=O)c1c(CC)noc1C`, the Potency was “inactive”.
With `CCc1ccc(N2C(=O)Nc3ccc(Br)cc3C2(O)C(=O)NCCN(C)C)cc1` (stereo not drawn) the Potency was “inactive”.
With `CCC(=O)c1ccc(OCC(=O)Nc2nc(-c3cccnc3)cs2)cc1` the Potency was inconclusive: 10 µM [inhibitor, partial curve, poor fit].
For `CCc1nnc(NC(=O)C=C(C)C)s1`, the Potency was inconclusive: 5.01 µM [activator, partial curve, poor fit].
For `FC(F)Sc1ccc(NC(=S)NC(c2ccccc2)c2ccccc2)cc1`, the Potency was inconclusive: 29.1 µM [inhibitor, single point].
With `O=C(c1ccc(NS(=O)(=O)c2ccc(F)cc2)cc1)N1CCCCCC1` the Potency was inconclusive: 11.2 µM [inhibitor, partial curve, poor fit].
For `COC(=O)c1ccccc1S(=O)(=O)N(Cc1cc2ccc(OC)cc2[nH]c1=O)CC1CCCO1` (stereo not drawn), the Potency was “inactive”.
With `COc1ccccc1Nc1nc(N)nc(CCl)n1` the Potency was inconclusive: 39.8 µM [inhibitor, partial curve, poor fit].
For `Cc1ccc2c(Cl)c(C(=O)NCC3CCCO3)sc2c1` (stereo not drawn), the Potency was inconclusive: 3.26 µM [activator, single point].
With `COc1cc(C2C(C#N)=C(N)Oc3c2ccc2ccccc32)ccc1OCC(=O)Nc1cccc(C)c1` (stereo not drawn) the Potency was active: 10 µM.
With `CNC(=O)c1c(NC(=O)c2cccc(N3C(=O)CCC3=O)c2)sc2c1CCCC2` the Potency was “inactive”.
In the case of `O=C(Cc1cccs1)Nc1nc(-c2ccccc2)cs1`, the Potency is reported as active: 1.64 µM.
For `Cc1ccccc1CSCCNC(=O)COc1ccc(Cl)cc1`, the Potency was “inactive”.
In the case of `Cc1cc(C(=O)COC(=O)Cn2c(C(F)(F)F)nc3ccccc32)c(C)n1Cc1ccco1`, the Potency is reported as “inactive”.
In the case of `COc1ccc(CCNC(=O)c2ccc3c(c2)N(Cc2ccccc2)CCS3)cc1OC`, the Potency is reported as inconclusive: 8.91 µM [inhibitor, partial curve, poor fit].
For `CCOc1ccc(NC(=O)C(=O)NCCc2csc(-c3ccc(C(F)(F)F)cc3)n2)cc1`, the Potency was inconclusive: 1 µM [inhibitor, partial curve, poor fit].
With `Cc1ccc(C2C3CSCC=C3C(C#N)=C(N)C2(C#N)C#N)cc1` (stereo not drawn) the Potency was “inactive”.
For `Cc1ccc2[nH]c(=O)c(CN(CCCN(C)C)C(=O)Nc3cccc(Cl)c3)cc2c1`, the Potency was inconclusive: 20.6 µM [inhibitor, single point].
For `COC(=O)c1c(SCc2ccc(C#N)cc2)nc(=O)[nH]c1C`, the Potency was “inactive”.
For `CCOC(=O)c1ccccc1NC(=O)C(C)Oc1ccccc1` (stereo not drawn), the Potency was inconclusive: 28.2 µM [inhibitor, single point].
In the case of `Cc1cc(C)[n+](Cc2ccccc2)cc1C(N)=O`, the Potency is reported as inconclusive: 31.6 µM [activator, single point].
With `O=S(=O)(c1ccc(Oc2ccc(S(=O)(=O)N3CCOCC3)cc2)cc1)N1CCOCC1` the Potency was “inactive”.
In the case of `COC(=O)C1=C(N)Oc2c(c(=O)oc3ccccc23)C1c1cccnc1` (stereo not drawn), the Potency is reported as “inactive”.
With `CCSC1=N/C(=C\c2cccnc2)C(=O)N1c1ccccc1` the Potency was “inactive”.
For `O=[N+]([O-])c1ccc(NCCCNS(=O)(=O)c2ccccc2)cc1`, the Potency was “inactive”.
In the case of `CN(C)CC(C)(C)CNCc1cc(=O)oc2ccc3ccccc3c12`, the Potency is reported as inconclusive: 3.55 µM [inhibitor, partial curve, poor fit].
With `Cc1ccc(CNC(=O)c2ccc(Nc3nc4ccccc4n4nnnc34)cc2)cc1` the Potency was inconclusive: 3.16 µM [activator, partial curve, poor fit].
For `Cc1ccc(-c2nn(-c3ccccc3)c3c2cnc2ccccc23)cc1C`, the Potency was inconclusive: 5.62 µM [activator, single point].
For `CCOc1ccc(C(=O)c2ccccc2C(=O)O)cc1OCC`, the Potency was “inactive”.
In the case of `COc1ccc2c(c1)O[C@@H](c1cccc(C(F)(F)F)c1)[C@H](OC(=O)NCCc1ccc(OC)c(OC)c1)C2=O`, the Potency is reported as inconclusive: 18.4 µM [inhibitor, single point].
